We go through one compound from patent US20230040736A1, “DINITROXIDE BIRADICAL COMPOUNDS AS POLARIZING AGENTS” (COMMISSARIAT A L'ENERGIE ATOMIQUE ET AUX ENERGIES …, priority 2017, published 2023).

This data set can be described thus: MAS-DNP performance of biradical polarizing agents at 9.4 T (Table 1).

`CC1(C)C=C(C(=O)NC2CC(C)(C)N([O])C(C)(C)C2)C(C)(C)N1[O]` [AsymPol]: the “Buildup Time TB MAS” value is listed as 0.6 s, the “Buildup Time TB Static” value came to 1.0 s, the “DNP gain εB(MAS)” value was 30 and the “DNP sensitivity εB · TB(MAS)−1/2” value is 39 s^ −1/2. In addition, the “εon/off MAS” value is 32 and the “εon/off Static” value was found to be 11.
